Consider 1 molecule from article PMC10877577 (ACS Chemical Biology, 2024).

A short description of the data set: Isothermal titration calorimetry of aMinoC1 binding to minocycline. As to conditions: PEAQ-ITC, one set of sites. The procedure:
ITC measurements were performed using the PEAQ-ITC nonautomated (MicroCal) at 25 °C. The antibody sample was dialyzed overnight using 5 L of PBS (20 mM Na3PO4, 150 mM NaCl, pH 7.4). […] The concentration of the anti-minocycline sdAb (as murine IgG2a Fc fusion) was determined using extinction coefficients ε280 nm = 31,065 M^–1 cm^–1.
For orientation: In ITC the heat of successive injections is recorded.

B1: aMinoC1: anti-minocycline single-domain antibody clone 1 from immunized alpaca, tested as sdAb-Fc (antibody, V domains shown)
VH: QVQLESGGGLVQPGSSLRLSCAASGRTFSSYNIGWFRQAPKEREFVAAISWSGARTYYADSVKGRFTISRDNAKNTVYLQMNSLKPEDTAVYSCAAGRGWGTEAILDYWGQGTQVSSA
For the molecule B1, the “N (sites)” value amounted to 2.17 ±2.0e-2.
